# Literature values, collected in US20220401355A1, “Transdural Drug Delivery System” (University of Washington, priority 2021, published 2022).
# For at least one compound, name, drawing or mass did not settle the structure.
# Tested on: activated microglial cells
# Settings: 8 μg/mL over a 24-48 hour window
structure (smiles),measurement,value
C[C@@H]1C[C@H]2[C@@H]3CCC4=CC(=O)C=C[C@]4(C)[C@@]3(F)[C@@H](O)C[C@]2(C)[C@@]1(O)C(=O)CO [dexamethasone],reducing inflammation in activated microglial cells,improvement in reducing inflammation
